Assay results: patent US9340584
Results are given in words; binding and its absence hold for the method and conditions named. Some results given as binding are weak or reduced against the parent protein; the word gives no strength.

T1: EpCam (recombinant target protein of Table 9) (UniProt P16422)
T1 sequence (biotinylated with BirA + ATP + Biotin, looked up): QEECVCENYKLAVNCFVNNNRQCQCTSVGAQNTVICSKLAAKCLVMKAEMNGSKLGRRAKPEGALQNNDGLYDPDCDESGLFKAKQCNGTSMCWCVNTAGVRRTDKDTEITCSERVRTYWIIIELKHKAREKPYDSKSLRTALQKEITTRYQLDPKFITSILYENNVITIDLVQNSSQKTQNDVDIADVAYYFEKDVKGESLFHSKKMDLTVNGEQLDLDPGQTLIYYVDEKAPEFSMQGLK

B1: EpCAM binder F6 (TRX-3 library) (designed binder)
chain: MVKQIESKTAFQEALDAAGDKLVVVDFSATGQNRKRTEDWSGPSKMIKPFFHSLSEKYSNVIFLEVDVDDAQDVASEAAILISLPERPTFQFFKKGQKVGEFSGANKEKLEATINELV
B2: EpCAM binder E4 (TRX-3 library) (designed binder)
chain: MVKQIESKTAFQEALDAAGDKLVVVDFSATCVVTTGDSKWSGPSKMIKPFFHSLSEKYSNVIFLEVDVDDAQDVASEATRELLPYCWPTFQFFKKGQKVGEFSGANKEKLEATINELV
B3: EpCAM binder H9 (TRX-3 library) (designed binder)
chain: MVKQIESKTAFQEALDAAGDKLVVVDFSATCYAVREGQGWSGPSKMIKPFFHSLSEKYSNVIFLEVDVDDAQDVASEALYTALLYCTPTFQFFKKGQKVGEFSGANKEKLEATINELV
B4: EpCAM binder E7 (TRX-3 library) (designed binder)
chain: MVKQIESKTAFQEALDAAGDKLVVVDFSATGSSPESRVHWSGPSKMIKPFFHSLSEKYSNVIFLEVDVDDAQDVASEAACKHRVCFFPTFQFFKKGQKVGEFSGANKEKLEATINELV
B5: EpCAM binder G6 (TRX-3 library) (designed binder)
chain: MVKQIESKTAFQEALDAAGDKLVVVDFSATHTNESRDGNWSGPSKMIKPFFHSLSEKYSNVIFLEVDVDDAQDVASEAELIWSLPERPTFQFFKKGQKVGEFSGANKEKLEATINELV
B6: EpCAM binder G9 (TRX-3 library) (designed binder)
chain: MVKQIESKTAFQEALDAAGDKLVVVDFSATWNTRAHCSRWSGPSKMIKPFFHSLSEKYSNVIFLEVDVDDAQDVASEALLPPLCTIDPTFQFFKKGQKVGEFSGANKEKLEATINELV
B7: EpCAM binder A4 (TRX-3 library) (designed binder)
chain: MVKQIESKTAFQEALDAAGDKLVVVDFSATTRDWNRDVNWSGPSKMIKPFFHSLSEKYSNVIFLEVDVDDAQDVASEAQLTLSIPFRPTFQFFKKGQKVGEFSGANKEKLEATINELV
B8: EpCAM binder A2 (TRX-3 library) (designed binder)
chain: MVKQIESKTAFQEALDAAGDKLVVVDFSATCGRYEEGRRWSGPSKMIKPFFHSLSEKYSNVIFLEVDVDDAQDVASEALPLVYFCPYPTFQFFKKGQKVGEFSGANKEKLEATINELV
B9: EpCAM binder C9 (TRX-3 library) (designed binder)
chain: MVKQIESKTAFQEALDAAGDKLVVVDFSATSEANGEEWSGPSKMIKPFFHSLSEKYSNVIFLEVDVDDAQDVASEALRVWSIPERPTFQFFKKGQKVGEFSGANKEKLEATINELV
B10: EpCAM binder E10 (TRX-3 library) (designed binder)
chain: MVKQIESKTAFQEALDAAGDKLVVVDFSATQHKPWSGPSKMIKPFFHSLSEKYSNVIFLEVDVDDAQDVASEASYVYALPRRPTFQFFKKGQKVGEFSGANKEKLEATINELV
B11: EpCAM binder F3 (TRX-3 library) (designed binder)
chain: MVKQIESKTAFQEALDAAGDKLVVVDFSATDTTKDRGGTWSGPSKMIKPFFHSLSEKYSNVIFLEVDVDDAQDVASEALPWTVQFGYPTFQFFKKGQKVGEFSGANKEKLEATINELV
B12: EpCAM binder E6 (TRX-3 library) (designed binder)
chain: MVKQIESKTAFQEALDAAGDKLVVVDFSATSRQGGICSRWSGPSKMIKPFFHSLSEKYSNVIFLEVDVDDAQDVASEARISLWCAWTPTFQFFKKGQKVGEFSGANKEKLEATINELV
B13: EpCAM binder A11 (TRX-3 library) (designed binder)
chain: MVKQIESKTAFQEALDAAGDKLVVVDFSATGCVRTMARRWSGPSKMIKPFFHSLSEKYSNVIFLEVDVDDAQDVASEAMSSNKYICFPTFQFFKKGQKVGEFSGANKEKLEATINELV
B14: EpCAM binder F10 (TRX-3 library) (designed binder)
chain: MVKQIESKTAFQEALDAAGDKLVVVDFSATGKVCGGKRRWSGPSKMIKPFFHSLSEKYSNVIFLEVDVDDAQDVASEAARPHFCPVMPTFQFFKKGQKVGEFSGANKEKLEATINELV
B15: EpCAM binder F1 (TRX-3 library) (designed binder)
chain: MVKQIESKTAFQEALDAAGDKLVVVDFSATNWSSSSGKDWSGPSKMIKPFFHSLSEKYSNVIFLEVDVDDAQDVASEARYVFPPEAVPTFQFFKKGQKVGEFSGANKEKLEATINELV
B16: EpCAM binder E5 (TRX-3 library) (designed binder)
chain: MVKQIESKTAFQEALDAAGDKLVVVDFSATYRTHTNEIRWSGPSKMIKPFFHSLSEKYSNVIFLEVDVDDAQDVASEARFLTLRSSSPTFQFFKKGQKVGEFSGANKEKLEATINELV
B17: EpCAM binder H3 (TRX-3 library) (designed binder)
chain: MVKQIESKTAFQEALDAAGDKLVVVDFSATNKRGEGWQKWSGPSKMIKPFFHSLSEKYSNVIFLEVDVDDAQDVASEASVIMWPQLWPTFQFFKKGQKVGEFSGANKEKLEATINELV
B18: EpCAM binder F12 (TRX-3 library) (designed binder)
chain: MVKQIESKTAFQEALDAAGDKLVVVDFSATRGPWSGPSKMIKPFFHSLSEKYSNVIFLEVDVDDAQDVASEAFHASFVPLRPTFQFFKKGQKVGEFSGANKEKLEATINELV
B19: EpCAM binder H2 (TRX-3 library) (designed binder)
chain: MVKQIESKTAFQEALDAAGDKLVVVDFSATKENNGWRGNWSGPSKMIKPFFHSLSEKYSNVIFLEVDVDDAQDVASEAMAGPRVMGPPTFQFFKKGQKVGEFSGANKEKLEATINELV
B20: EpCAM binder F11 (TRX-3 library) (designed binder)
chain: MVKQIESKTAFQEALDAAGDKLVVVDFSATRDARAAPPSWSGPSKMIKPFFHSLSEKYSNVIFLEVDVDDAQDVASEALPWPSYFGLPTFQFFKKGQKVGEFSGANKEKLEATINELV
B21: EpCAM binder F2 (TRX-3 library) (designed binder)
chain: MVKQIESKTAFQEALDAAGDKLVVVDFSATQCWARRRDRWSGPSKMIKPFFHSLSEKYSNVIFLEVDVDDAQDVASEAGPRNTLLCFPTFQFFKKGQKVGEFSGANKEKLEATINELV
B22: EpCAM binder A6 (TRX-3 library) (designed binder)
chain: MVKQIESKTAFQEALDAAGDKLVVVDFSATNRNGEKHAHWSGPSKMIKPFFHSLSEKYSNVIFLEVDVDDAQDVASEAGLLWSIPFRPTFQFFKKGQKVGEFSGANKEKLEATINELV

The binders below were run against T1, EpCam (recombinant target protein of Table 9) (assay: phage display selection from TRX-3 library).

binding, binds:
B1, B2, B3, B4, B5, B6, B7, B8, B9, B10, B11, B12, B13, B14, B15, B16, B17, B18, B19, B20, B21, B22
